# From the supplement of paper PMC8728848
# This is one part of the list.
# B1: AcfC (Vibrio cholerae), Q57410 (protein)
# chain: MKSKNRFLLISLLSFSTSVFADVNLYGPGGPHVPLIKVAESFEKSQSKRVNITFGPQATWNDKAKKNADILFGASEHSALAIAEGHSERFSKFNIHPVFMREAIILVKKGNPKNIKGMADLLKPGIGIVVNDGAGVSNTSGTAVWEDSVGRMKNVEKLQAFRSNIHVFAPNSGSARKAFVDGEDIDAWITWVDWAIANPTIGDMVRMEDEYRIYRDFNVVLAKNPSSEAIDFFDYLTKSKDAEAIFQHYGWFK
# Legend:
# Experiment in all cases: glycan array binding signal (z-score within array); higher = stronger binding
# Details in all cases: glycan notation: IUPAC condensed, linker removed
# [1] = target: Gal(b1-4)GlcNAc(b1-3)Gal(b1-4)[Fuc(a1-3)]GlcNAc(b1-3)Gal(b1-4)[Fuc(a1-3)]GlcNAc
# Procedure, shortened: (§1)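 From the Consortium for Functional Glycomics database, 3228 arrays were curated, keeping only those whose protein sequence was available. Binding is given as a within-array Z-score averaged across arrays sharing a protein sequence and across linkers. Negative Z-scores can be read as non-binding.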
# [2] = target: Gal(b1-4)GlcNAc(b1-3)GalNAc
# Procedure, shortened: as §1
# [3] = target: Gal(b1-4)GlcNAc(b1-3)[Gal(b1-4)GlcNAc(b1-6)]Gal(b1-4)GlcNAc
# Procedure, shortened: as §1
# [4] = target: Gal(b1-4)GlcNAc(b1-3)[Gal(b1-4)GlcNAc(b1-6)]GalNAc
# Procedure, shortened: as §1
# [5] = target: Gal(b1-4)GlcNAc(b1-3)[GlcNAc(b1-6)]Gal(b1-4)GlcNAc
# Procedure, shortened: as §1
# [6] = target: Gal(b1-4)GlcNAc(b1-6)Gal(b1-4)GlcNAc
# Procedure, shortened: as §1
# [7] = target: Gal(b1-4)GlcNAc(b1-6)GalNAc
# Procedure, shortened: as §1
# [8] = target: Gal(b1-4)GlcNAc(b1-6)[Gal(b1-3)]GalNAc
# Procedure, shortened: as §1
# Gal3S(b1-3)GalNAc = target: Gal3S(b1-3)GalNAc
# Procedure, shortened: as §1
# Gal3S(b1-3)GlcNAc = target: Gal3S(b1-3)GlcNAc
# Procedure, shortened: as §1
# [9] = target: Gal3S(b1-3)[Fuc(a1-4)]GlcNAc
# Procedure, shortened: as §1
# Gal3S(b1-4)Glc = target: Gal3S(b1-4)Glc
# Procedure, shortened: as §1
# Gal3S(b1-4)Glc6S = target: Gal3S(b1-4)Glc6S
# Procedure, shortened: as §1
# Gal3S(b1-4)GlcNAc = target: Gal3S(b1-4)GlcNAc
# Procedure, shortened: as §1
# Gal3S(b1-4)GlcNAc6S = target: Gal3S(b1-4)GlcNAc6S
# Procedure, shortened: as §1
# [10] = target: Gal3S(b1-4)[Fuc(a1-3)]Glc
# Procedure, shortened: as §1
# [11] = target: Gal3S(b1-4)[Fuc(a1-3)]Glc6S
# Procedure, shortened: as §1
# Gal3S4S(b1-4)GlcNAc = target: Gal3S4S(b1-4)GlcNAc
# Procedure, shortened: as §1
# Gal3S6S(b1-4)GlcNAc = target: Gal3S6S(b1-4)GlcNAc
# Procedure, shortened: as §1
# Gal3S6S(b1-4)GlcNAc6S = target: Gal3S6S(b1-4)GlcNAc6S
# Procedure, shortened: as §1
# Gal4S(b1-4)GlcNAc = target: Gal4S(b1-4)GlcNAc
# Procedure, shortened: as §1
# Gal4S6S(b1-4)GlcNAc = target: Gal4S6S(b1-4)GlcNAc
# Procedure, shortened: as §1
# Gal6S(b1-4)Glc = target: Gal6S(b1-4)Glc
# Procedure, shortened: as §1
# Gal6S(b1-4)Glc6S = target: Gal6S(b1-4)Glc6S
# Procedure, shortened: as §1
# Gal6S(b1-4)GlcNAc = target: Gal6S(b1-4)GlcNAc
# Procedure, shortened: as §1
# Gal6S(b1-4)GlcNAc6S = target: Gal6S(b1-4)GlcNAc6S
# Procedure, shortened: as §1
# GalNAc(a1-3)Gal = target: GalNAc(a1-3)Gal
# Procedure, shortened: as §1
# GalNAc(a1-3)GalNAc = target: GalNAc(a1-3)GalNAc
# Procedure, shortened: as §1
# [12] = target: GalNAc(a1-3)GalNAc(a1-3)Gal(a1-4)Gal(b1-4)GlcNAc
# Procedure, shortened: as §1
# GalNAc(b1-3)Gal = target: GalNAc(b1-3)Gal
# Procedure, shortened: as §1
# [13] = target: GalNAc(b1-3)Gal(a1-4)Gal(b1-4)GlcNAc
# Procedure, shortened: as §1
# [14] = target: GalNAc(b1-3)Gal(a1-4)Gal(b1-4)GlcNAc(b1-3)Gal(b1-4)Glc
# Procedure, shortened: as §1
# [15] = target: GalNAc(b1-3)Gal(a1-6)Gal(b1-4)Glc
# Procedure, shortened: as §1
# GalNAc(b1-3)GalNAc = target: GalNAc(b1-3)GalNAc
# Procedure, shortened: as §1
# GalNAc(b1-4)GlcNAc = target: GalNAc(b1-4)GlcNAc
# Procedure, shortened: as §1
# [16] = target: GalNAc(b1-4)GlcNAc(b1-2)Man(a1-3)[GalNAc(b1-4)GlcNAc(b1-2)Man(a1-6)]Man(b1-4)GlcNAc(b1-4)GlcNAc
# Procedure, shortened: as §1
# Glc(a1-4)Glc = target: Glc(a1-4)Glc
# Procedure, shortened: as §1
# Glc(a1-6)Glc(a1-6)Glc = target: Glc(a1-6)Glc(a1-6)Glc
# Procedure, shortened: as §1
# Glc(b1-4)Glc = target: Glc(b1-4)Glc
# Procedure, shortened: as §1
# Glc(b1-6)Glc = target: Glc(b1-6)Glc
# Procedure, shortened: as §1
# GlcA(b1-3)Gal = target: GlcA(b1-3)Gal
# Procedure, shortened: as §1
# GlcA(b1-3)GlcNAc = target: GlcA(b1-3)GlcNAc
# Procedure, shortened: as §1
# GlcA(b1-6)Gal = target: GlcA(b1-6)Gal
# Procedure, shortened: as §1
# [17] = target: GlcNAc(a1-3)Gal(b1-4)GlcNAc
# Procedure, shortened: as §1
# [18] = target: GlcNAc(a1-4)Gal(b1-3)GlcNAc
# Procedure, shortened: as §1
binder,measurement,setting,value
B1,glycan array binding signal (z-score),[1],1.46
same,glycan array binding signal (z-score),[2],-0.583
same,glycan array binding signal (z-score),[3],-0.494
same,glycan array binding signal (z-score),[4],0.236
same,glycan array binding signal (z-score),[5],-0.485
same,glycan array binding signal (z-score),[6],-1.07
same,glycan array binding signal (z-score),[7],0.912
same,glycan array binding signal (z-score),[8],-0.705
same,glycan array binding signal (z-score),Gal3S(b1-3)GalNAc,0.527
same,glycan array binding signal (z-score),Gal3S(b1-3)GlcNAc,-0.451
same,glycan array binding signal (z-score),[9],-0.184
same,glycan array binding signal (z-score),Gal3S(b1-4)Glc,-1.26
same,glycan array binding signal (z-score),Gal3S(b1-4)Glc6S,0.515
same,glycan array binding signal (z-score),Gal3S(b1-4)GlcNAc,0.272
same,glycan array binding signal (z-score),Gal3S(b1-4)GlcNAc6S,0.661
same,glycan array binding signal (z-score),[10],-0.154
same,glycan array binding signal (z-score),[11],1.71
same,glycan array binding signal (z-score),Gal3S4S(b1-4)GlcNAc,0.113
same,glycan array binding signal (z-score),Gal3S6S(b1-4)GlcNAc,0.605
same,glycan array binding signal (z-score),Gal3S6S(b1-4)GlcNAc6S,0.18
same,glycan array binding signal (z-score),Gal4S(b1-4)GlcNAc,0.111
same,glycan array binding signal (z-score),Gal4S6S(b1-4)GlcNAc,1.37
same,glycan array binding signal (z-score),Gal6S(b1-4)Glc,0.52
same,glycan array binding signal (z-score),Gal6S(b1-4)Glc6S,-0.014
same,glycan array binding signal (z-score),Gal6S(b1-4)GlcNAc,0.576
same,glycan array binding signal (z-score),Gal6S(b1-4)GlcNAc6S,0.357
same,glycan array binding signal (z-score),GalNAc(a1-3)Gal,0.334
same,glycan array binding signal (z-score),GalNAc(a1-3)GalNAc,-1.25
same,glycan array binding signal (z-score),[12],-0.157
same,glycan array binding signal (z-score),GalNAc(b1-3)Gal,0.219
same,glycan array binding signal (z-score),[13],1.38
same,glycan array binding signal (z-score),[14],0.025
same,glycan array binding signal (z-score),[15],-1.05
same,glycan array binding signal (z-score),GalNAc(b1-3)GalNAc,0.05
same,glycan array binding signal (z-score),GalNAc(b1-4)GlcNAc,0.088
same,glycan array binding signal (z-score),[16],1.96
same,glycan array binding signal (z-score),Glc(a1-4)Glc,-0.692
same,glycan array binding signal (z-score),Glc(a1-6)Glc(a1-6)Glc,-1.29
same,glycan array binding signal (z-score),Glc(b1-4)Glc,0.476
same,glycan array binding signal (z-score),Glc(b1-6)Glc,-0.38
same,glycan array binding signal (z-score),GlcA(b1-3)Gal,-0.742
same,glycan array binding signal (z-score),GlcA(b1-3)GlcNAc,-0.306
same,glycan array binding signal (z-score),GlcA(b1-6)Gal,-0.431
same,glycan array binding signal (z-score),[17],-0.288
same,glycan array binding signal (z-score),[18],0.098

# 2 consecutive records out of the list so far, quoted:
binder,measurement,setting,value
B1,glycan array binding signal (z-score),GalNAc(a1-3)GalNAc,-1.25
same,glycan array binding signal (z-score),[12],-0.157
